Measurements from PubChem BioAssay AID504444 (National Center for Advancing Translational Sciences (NCATS), 2011).
The campaign covered roughly 360,000 compounds. About 7,500 (2.1%) were called active. Inconclusive means that the source gave no clear call. Such entries were picked first, then a sample of the others. Calls come from the whole dose curve; as a rule, active = well fitted inhibition curve with a large enough effect; inconclusive = small, poorly fitted or top-dose-only effect, or effect the other way; inactive = flat fitted curve, though single readings scatter. Potencies of inconclusive entries are doubtful fits and often do not repeat.

Test: Nrf2 qHTS screen for inhibitors; note: nearly all actives have a fitted effect of over 60% in size
Conditions: A549 ARE-Fluc reporter, luciferase luminescence, 18-24 h; series mostly up to 46 µM
How it was run: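 Cells were seeded and rested 2 h, then exposed to compounds for 18-24 h. CellTiter-Fluor was read first as a viability measure. BugLite was added 15 min before the final luminescent read of ARE-luciferase activity in A549 cells.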
Potency is the fitted concentration of half-maximal effect.

Q: Which Potency does the source give for `COc1ccc(S(=O)(=O)Nc2ccc(N3CCOCC3)cc2)cc1` here?
A: inconclusive: 18.4 µM [falling, partial curve, poor fit]

Q: For `Cn1cc(Br)c(C(=O)N/N=C/c2cc3c(cc2Cl)OCO3)n1`, which Potency is on record?
A: inconclusive: 3.26 µM [activator, partial curve]

Q: With `Cc1cc(-c2ccc(C)c(S(=O)(=O)NCC3CCN(Cc4ccccc4F)CC3)c2)on1` as the molecule, how does the Potency read?
A: inconclusive: 18.4 µM [activator, single point]

Q: For `CC(C)CN(C(=O)COC(=O)c1cc2ccccc2cc1O)c1c(N)n(Cc2ccccc2)c(=O)[nH]c1=O`, which Potency is on record?
A: inconclusive: 2.59 µM [falling, partial curve, poor fit]

Q: With `CC1=CC(C)(C)N=C(Nc2ccc(C)cc2)S1` as the molecule, how does the Potency read?
A: inconclusive: 23.1 µM [activator, partial curve]

Q: Which Potency does the source give for `COc1cccc(-c2csc(N3CCN(CC(=O)NNC(=O)c4ccc(Cl)cc4)CC3)n2)c1` here?
A: inconclusive: 9.2 µM [falling, partial curve, poor fit]

Q: For `CC(C)(C)N1C(=O)c2ccc(C(=O)Nc3ccc(O)cc3)cc2C1=O`, which Potency is on record?
A: inconclusive: 29.1 µM [activator, single point]

Q: Which Potency does the source give for `Cc1ccc(SCC(=O)Nc2ccc3oc(-c4cccc(Cl)c4)nc3c2)cc1` here?
A: inactive

Q: For `O=C(Nc1cccc(F)c1)N1CC=C(n2c(=O)[nH]c3ccccc32)CC1`, which Potency is on record?
A: inconclusive: 10.3 µM [falling, partial curve, poor fit]

Q: For `O=C(Nc1ccccc1)c1cc(S(=O)(=O)N2CCOCC2)cs1`, which Potency is on record?
A: inconclusive: 25.9 µM [falling, partial curve]

Q: Which Potency does the source give for `CCc1cccc(Nc2cnn(C34C[C@@H]5C[C@@H](CC(CC(=O)O)(C5)C3)C4)c(=O)c2Cl)c1` here?
A: inconclusive: 29.1 µM [activator, single point]

Q: With `COc1ccc(-c2oc3ncnc(N)c3c2-c2ccccc2)cc1` as the molecule, how does the Potency read?
A: inconclusive: 2.91 µM [falling, partial curve, poor fit]

Q: For `COc1ccc(Br)cc1C(=O)N/N=C/c1ccc([N+](=O)[O-])cc1`, which Potency is on record?
A: inconclusive: 9.2 µM [falling, partial curve]

Q: Which Potency does the source give for `Cc1ccc(S(=O)(=O)N2CCN(C(=O)c3ccc(N4CCCC4)c([N+](=O)[O-])c3)CC2)cc1` here?
A: inactive

Q: With `COc1cccc(-c2cc(C(=O)Nc3cc(C)n(Cc4ccc(Cl)cc4)n3)no2)c1` as the molecule, how does the Potency read?
A: inconclusive: 1.84 µM [falling, full curve]

Q: With `COc1ccccc1NC(=O)Cn1nc(-c2ccc(Cl)cc2)c2ccccc2c1=O` as the molecule, how does the Potency read?
A: inconclusive: 16.4 µM [falling, partial curve, poor fit]

Q: With `COc1ccc(-c2cc(-c3ccccc3)c(C#N)c(S(C)=O)n2)cc1` (stereo unspecified) as the molecule, how does the Potency read?
A: inconclusive: 20.6 µM [falling, single point]

Q: For `C=CCn1c(SCC(=O)c2cccs2)nnc1-c1cccc(OC)c1`, which Potency is on record?
A: inactive

Q: For `S=C(N/N=C/c1ccc2ncccc2c1)Nc1cccnc1`, which Potency is on record?
A: inconclusive: 25.9 µM [falling, single point]

Q: With `CCc1ccc(-n2c(SCC(=O)N3CCC(C(=O)O)CC3)nnc2-c2ccncc2)cc1` as the molecule, how does the Potency read?
A: inactive

Q: Which Potency does the source give for `Cc1c(Cl)cccc1N/C(SCC(=O)N1CCCCCC1)=C(/C#N)c1nc2ccccc2s1` here?
A: inconclusive: 29.1 µM [falling, single point]

Q: With `COC(=O)C(=Cc1ccccc1[N+](=O)[O-])C(=O)OC` as the molecule, how does the Potency read?
A: inconclusive: 29.1 µM [falling, single point]

Q: With `CCOC(=O)c1cccc(NC(=O)c2cnc3sc(N4CCOCC4)nn3c2=O)c1` as the molecule, how does the Potency read?
A: inactive

Q: With `CCC(=O)N1CCc2cc(S(=O)(=O)N3CCN(C(=O)c4ccco4)CC3)ccc21` as the molecule, how does the Potency read?
A: inconclusive: 20.6 µM [falling, partial curve, poor fit]

Q: Which Potency does the source give for `c1cnc(N2CCN(c3ccc4ccccc4n3)CC2)nc1` here?
A: inconclusive: 1.84 µM [activator, full curve]

Q: For `N#CC(c1ccccc1)c1ccc2c(C(F)(F)F)cc(C(F)(F)F)nc2n1` (stereo unspecified), which Potency is on record?
A: active: 25.9 µM

Q: Which Potency does the source give for `Nc1c(Cl)cc2c(c1Br)Cc1ccccc1-2` here?
A: inconclusive: 23.1 µM [activator, single point]

Q: With `COc1ccccc1NS(=O)(=O)c1cccc(-n2c(O)c(C=Nc3ccccc3C(=O)O)c3ccccc3c2=O)c1` as the molecule, how does the Potency read?
A: inconclusive: 1.3 µM [falling, full curve]

Q: With `Cc1ccc(S(=O)(=O)NCCC(=O)NC2CCCCC2)cc1` as the molecule, how does the Potency read?
A: inconclusive: 1.03 µM [activator, partial curve, poor fit]

Q: For `O=C(NCCc1ccccn1)c1cccc(S(=O)(=O)N2CCc3ccccc32)c1`, which Potency is on record?
A: inconclusive: 25.9 µM [falling, partial curve, poor fit]

Q: With `CCCNc1nc(C)c(C(C)=O)cc1C#N` as the molecule, how does the Potency read?
A: inconclusive: 13 µM [activator, single point]

Q: Which Potency does the source give for `CC(C)Oc1ccc(C(=O)Nc2ccc(N3CCCC3)cc2)cc1` here?
A: inconclusive: 0.461 µM [falling, full curve, poor fit]

Q: Which Potency does the source give for `CCOC(=O)C(Cc1c[nH]c2ccccc12)NC(=O)c1ccccc1Br` (stereo unspecified) here?
A: inconclusive: 20.6 µM [activator, single point]

Q: For `Cc1ccc(OCc2nc(-c3ccccn3)no2)cc1`, which Potency is on record?
A: inconclusive: 1.46 µM [activator, full curve]

Q: With `CC(C)c1nnc(SCC(=O)N2CCc3ccccc32)n1N` as the molecule, how does the Potency read?
A: inactive

Q: For `CCOC(=O)C1CCCN(Cc2ccc(OCc3ccccc3)c(OC)c2)C1` (stereo unspecified), which Potency is on record?
A: inactive

Q: Which Potency does the source give for `CCOC(=O)C1C(=O)C=C(Nc2ccccc2F)CC1c1ccccc1` (stereo unspecified) here?
A: inconclusive: 18.4 µM [activator, single point]

Q: Which Potency does the source give for `O=C(c1ccncc1)N1CCN(C(=O)c2cccc3ccccc23)CC1` here?
A: inactive

Q: Which Potency does the source give for `COc1cc(C(=O)Nc2ccc(-c3nc4cc(C)ccc4o3)c(O)c2)cc(OC)c1OC` here?
A: active: 20.6 µM

Q: Which Potency does the source give for `O=C(Nc1ccc(Cl)c(S(=O)(=O)N2CCCCC2)c1)c1ccncc1` here?
A: inconclusive: 16.4 µM [falling, single point]

Q: Which Potency does the source give for `CC(=O)Nc1cc2nn(-c3ccccc3)nc2cc1C` here?
A: inconclusive: 1.84 µM [activator, partial curve, poor fit]
